Values of other authors, collected in patent US8906890B2, “Very low-dosed solid oral dosage forms for HRT” (Bayer Intellectual Property GmbH, priority 2010, dated 2014).
Read-outs that look alike come from different tables or passages of the source. At least one structure is not confirmed: it was looked up by name or label, or the drawing left a doubt.

Settings: for decreases in number of hot flushes and hot flush weekly weighted score compared with placebo: end of 12-week treatment; for significance compared to the placebo group: week 4

C[C@]12CC[C@@H]3c4ccc(O)cc4CC[C@H]3[C@@H]1CC[C@@H]2O [E2, estradiol]
symptom relief in women with moderate to severe vasomotor symptoms (0.25 mg E2 orally): ineffective | symptom relief in women with moderate to severe vasomotor symptoms (0.5 mg E2 orally): require more time | decreases in number of hot flushes and hot flush weekly weighted score compared with placebo (0.5 mg E2 orally): significantly greater | decreases in number of hot flushes and hot flush weekly weighted score compared with placebo (1 mg E2 orally): significantly greater | significance compared to the placebo group (1 mg E2 orally): showed significance | symptom relief in women with moderate to severe vasomotor symptoms (2 mg E2 orally): effective | decreases in number of hot flushes and hot flush weekly weighted score compared with placebo (2 mg E2 orally): significantly greater | significance compared to the placebo group (2 mg E2 orally): showed significance | relationship between E2 dose and reduction in vasomotor symptoms (0.25-2 mg E2 orally, number of moderate to severe hot flushes and weekly weighted score): significant linear dose-response relationship
